Assay results published in PMC8265671.
No constants are given. Whether binding was seen depends on the method and setting. In cells and extracts the contact can be indirect. Binding calls can cover weak binding; strength is not graded here.

Molecular target: FLAG-tagged TgMLC1 C8S (Toxoplasma gondii)
Assay: co-IP; anti-FLAG M2 affinity resin, Triton X-100 extract of parasites in FLAG lysis buffer (10 mM imidazole pH 7.4, 300 mM NaCl, 1 mM EGTA, 5 mM MgCl2, 1% TX-100, 2 mM DTT, 2 mM ATP), overnight at 4°C, eluted with FLAG peptide, quantitative Western blotting

B1: TgGAP45 (Toxoplasma gondii glideosome-associated protein 45) (protein, UniProt Q7Z289 1-245)
chain: MGNACKKNTAKTPTRKEAEDLAEKERQEREAKEKAEAEEKARAEAEKNAADKAEAERRAAEAREREESARKEAEAEAARKAEAEAAEAERLRKEAEKKKAEEAKRKAEEEQRAAAEEAEQRAREEAERRKAEAAAAAERERQMQEALKQEEMSPREKYDKLASPEDSASETTMATQPQKVAEHSSAAVTDRSVVGYTVTPCDMAAIDETAKYLSKRCGCDLGDQHDENECPICRHIDLSDAPLLN
For B1, the binding was “binds”.
